In patent US8476434B2, “Protein kinase modulators and method of use” (Amgen Inc., priority 2004, dated 2013):
Some entries share one result that the patent states for a list of compounds.

The chains behind the UniProt entries cited, without tags or fusion partners. Residues count along the entry.
UniProt Q02763, 23-1124: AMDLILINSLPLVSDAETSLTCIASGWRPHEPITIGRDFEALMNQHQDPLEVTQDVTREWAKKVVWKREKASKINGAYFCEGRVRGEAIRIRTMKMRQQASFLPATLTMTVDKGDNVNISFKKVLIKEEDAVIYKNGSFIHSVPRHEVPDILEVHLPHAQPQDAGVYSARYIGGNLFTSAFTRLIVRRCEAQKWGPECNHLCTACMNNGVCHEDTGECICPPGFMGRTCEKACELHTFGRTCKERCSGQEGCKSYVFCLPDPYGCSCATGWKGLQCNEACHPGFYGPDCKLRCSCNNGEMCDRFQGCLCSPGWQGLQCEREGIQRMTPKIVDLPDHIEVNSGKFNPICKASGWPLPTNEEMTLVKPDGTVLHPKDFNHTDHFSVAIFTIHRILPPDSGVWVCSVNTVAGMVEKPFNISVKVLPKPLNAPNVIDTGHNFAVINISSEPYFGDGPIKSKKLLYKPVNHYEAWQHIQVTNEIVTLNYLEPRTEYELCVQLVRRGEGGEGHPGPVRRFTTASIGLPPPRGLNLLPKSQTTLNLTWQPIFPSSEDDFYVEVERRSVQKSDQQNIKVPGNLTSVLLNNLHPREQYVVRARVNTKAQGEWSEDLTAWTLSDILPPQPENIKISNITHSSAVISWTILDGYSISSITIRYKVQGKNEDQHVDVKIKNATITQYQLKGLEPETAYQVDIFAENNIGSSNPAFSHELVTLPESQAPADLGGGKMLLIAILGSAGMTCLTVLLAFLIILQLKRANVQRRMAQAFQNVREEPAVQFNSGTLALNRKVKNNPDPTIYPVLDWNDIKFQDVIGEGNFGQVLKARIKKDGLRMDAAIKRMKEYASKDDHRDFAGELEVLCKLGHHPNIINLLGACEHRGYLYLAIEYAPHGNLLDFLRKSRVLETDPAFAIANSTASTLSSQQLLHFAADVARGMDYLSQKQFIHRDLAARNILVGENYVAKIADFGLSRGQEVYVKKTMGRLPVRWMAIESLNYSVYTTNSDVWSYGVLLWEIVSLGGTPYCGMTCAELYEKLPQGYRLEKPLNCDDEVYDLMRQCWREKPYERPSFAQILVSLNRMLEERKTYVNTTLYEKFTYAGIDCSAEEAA
UniProt Q96GD4, whole entry: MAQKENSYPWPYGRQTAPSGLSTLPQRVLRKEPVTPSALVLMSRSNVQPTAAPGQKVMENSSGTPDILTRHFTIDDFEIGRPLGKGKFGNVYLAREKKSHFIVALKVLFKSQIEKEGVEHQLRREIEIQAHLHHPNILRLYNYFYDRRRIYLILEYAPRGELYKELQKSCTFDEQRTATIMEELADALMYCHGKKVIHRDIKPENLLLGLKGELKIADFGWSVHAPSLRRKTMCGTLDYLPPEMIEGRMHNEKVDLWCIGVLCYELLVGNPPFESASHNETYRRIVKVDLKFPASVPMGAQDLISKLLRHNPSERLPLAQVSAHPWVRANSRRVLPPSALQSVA

Tests used:
Tie-2 kinase enzyme = Tie-2 kinase enzyme (Homo sapiens, UniProt Q02763); experiment: Tie-2 Homogenous Time Resolved Fluorescent (HTRF) kinase assay; assay type: biochemical; details: read-out: IC50's for the inhibition of Tie-2 as measured by the HTRF assay
AuroraA-TPX2 KD GST = target: T1, AuroraA-TPX2 KD GST (Homo sapiens, UniProt O14965); experiment: AuroraA-TPX2 Homogeneous Time Resolved Fluorescent (HTRF) kinase assay; assay type: biochemical; details: read-out: activity in the Aurora kinase A HTRF assay
T1 construct: AuroraA-TPX2 KD GST; GST
T1 sequence (O14965 133-383 limits assumed): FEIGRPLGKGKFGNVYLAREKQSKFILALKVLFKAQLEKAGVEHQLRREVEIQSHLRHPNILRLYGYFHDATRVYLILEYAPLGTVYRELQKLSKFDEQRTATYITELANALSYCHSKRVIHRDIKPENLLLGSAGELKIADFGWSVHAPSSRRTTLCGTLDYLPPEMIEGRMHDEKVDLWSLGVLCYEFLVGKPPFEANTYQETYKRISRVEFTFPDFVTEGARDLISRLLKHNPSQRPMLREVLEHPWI
T1 sequence (Q9ULW0 1-43 partner limits assumed): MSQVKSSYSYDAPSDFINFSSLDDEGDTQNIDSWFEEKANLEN

AuroraB FL His = target: T2, AuroraB FL His (Homo sapiens, UniProt Q96GD4); experiment: AuroraB Homogeneous Time Resolved Fluorescent (HTRF) kinase assay; assay type: biochemical; details: read-out: activity in the Aurora kinase B HTRF assay
T2 construct: AuroraB FL His; His

c-Met = c-Met (UniProt P08581); experiment: c-MET cell-based autophosphorylation assay (PC3 cells, HGF stimulated); details: cell line (human PC3 or mouse CT26) not stated for the results

Row | Structure (SMILES) | IC50 (Tie-2 kinase enzyme) | IC50 (AuroraA-TPX2 KD GST) | IC50 (AuroraB FL His) | IC50 (c-Met)
1 | CNc1nccc(-c2cccnc2Oc2ccc(NC(=O)Oc3ccccc3)cc2C)n1 [Example 778, phenyl 3-methyl-4-((3-(2-(methylamino)-4-pyrimidinyl)-2-pyridinyl)oxy)phenylcarba-mate] | < 5 µM | < 10 µM | < 10 µM | –
2 | CNc1nccc(-c2cccnc2Oc2ccc(NC(=O)Oc3ccccc3)cc2C)n1 [phenyl 3-methyl-4-((3-(2-(methylamino)-4-pyrimidinyl)-2-pyridinyl)oxy)phenylcarbamate] | – | – | – | < 25 µM
